Results taken from the supplement of paper PMC7666118.
Some of the results follow.

Protein sequences, listed by entry. Tags and fused reporters are not part of them. Lines headed by an entry give the natural chain unless they say otherwise; changes in a name come on top.
UniProt P52429: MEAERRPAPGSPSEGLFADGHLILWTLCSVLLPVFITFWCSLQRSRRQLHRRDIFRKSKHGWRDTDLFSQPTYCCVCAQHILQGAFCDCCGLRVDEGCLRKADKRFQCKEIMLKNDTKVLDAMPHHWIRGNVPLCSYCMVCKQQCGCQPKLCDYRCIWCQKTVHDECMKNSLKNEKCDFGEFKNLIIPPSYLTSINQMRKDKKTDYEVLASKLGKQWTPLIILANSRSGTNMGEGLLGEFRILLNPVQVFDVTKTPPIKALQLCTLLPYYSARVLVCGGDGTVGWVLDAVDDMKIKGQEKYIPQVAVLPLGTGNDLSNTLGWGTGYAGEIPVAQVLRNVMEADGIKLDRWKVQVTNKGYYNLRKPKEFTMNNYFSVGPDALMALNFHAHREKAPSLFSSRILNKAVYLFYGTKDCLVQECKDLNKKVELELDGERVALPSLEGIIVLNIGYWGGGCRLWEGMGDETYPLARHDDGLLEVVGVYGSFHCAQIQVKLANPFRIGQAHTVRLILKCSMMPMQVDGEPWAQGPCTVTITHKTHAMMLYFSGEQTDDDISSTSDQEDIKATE
UniProt P25685, whole entry: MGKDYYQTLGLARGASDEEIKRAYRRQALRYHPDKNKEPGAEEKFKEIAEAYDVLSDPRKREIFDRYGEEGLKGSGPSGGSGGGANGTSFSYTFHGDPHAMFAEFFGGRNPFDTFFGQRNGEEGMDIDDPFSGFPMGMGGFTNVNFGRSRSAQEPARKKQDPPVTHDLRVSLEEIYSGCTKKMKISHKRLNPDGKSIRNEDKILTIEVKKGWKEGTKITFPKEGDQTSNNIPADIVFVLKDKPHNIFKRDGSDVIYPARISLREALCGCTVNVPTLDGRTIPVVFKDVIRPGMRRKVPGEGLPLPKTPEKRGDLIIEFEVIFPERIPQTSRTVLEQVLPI
UniProt Q9UDY4: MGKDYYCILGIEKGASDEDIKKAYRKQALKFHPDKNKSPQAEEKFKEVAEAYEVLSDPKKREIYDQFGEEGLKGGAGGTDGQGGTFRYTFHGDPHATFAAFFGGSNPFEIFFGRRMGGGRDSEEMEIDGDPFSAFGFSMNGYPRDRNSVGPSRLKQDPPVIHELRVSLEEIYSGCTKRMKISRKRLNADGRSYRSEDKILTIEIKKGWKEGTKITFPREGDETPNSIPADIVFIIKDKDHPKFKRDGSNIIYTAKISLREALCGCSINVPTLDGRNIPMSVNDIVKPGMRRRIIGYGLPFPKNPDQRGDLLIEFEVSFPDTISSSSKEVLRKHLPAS
UniProt P67870, whole entry: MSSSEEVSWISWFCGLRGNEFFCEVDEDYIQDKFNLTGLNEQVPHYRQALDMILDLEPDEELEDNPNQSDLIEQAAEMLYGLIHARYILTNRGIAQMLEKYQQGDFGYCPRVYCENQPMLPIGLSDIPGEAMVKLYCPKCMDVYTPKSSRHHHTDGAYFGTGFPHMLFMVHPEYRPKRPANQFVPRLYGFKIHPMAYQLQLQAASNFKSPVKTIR
UniProt Q13620, whole entry: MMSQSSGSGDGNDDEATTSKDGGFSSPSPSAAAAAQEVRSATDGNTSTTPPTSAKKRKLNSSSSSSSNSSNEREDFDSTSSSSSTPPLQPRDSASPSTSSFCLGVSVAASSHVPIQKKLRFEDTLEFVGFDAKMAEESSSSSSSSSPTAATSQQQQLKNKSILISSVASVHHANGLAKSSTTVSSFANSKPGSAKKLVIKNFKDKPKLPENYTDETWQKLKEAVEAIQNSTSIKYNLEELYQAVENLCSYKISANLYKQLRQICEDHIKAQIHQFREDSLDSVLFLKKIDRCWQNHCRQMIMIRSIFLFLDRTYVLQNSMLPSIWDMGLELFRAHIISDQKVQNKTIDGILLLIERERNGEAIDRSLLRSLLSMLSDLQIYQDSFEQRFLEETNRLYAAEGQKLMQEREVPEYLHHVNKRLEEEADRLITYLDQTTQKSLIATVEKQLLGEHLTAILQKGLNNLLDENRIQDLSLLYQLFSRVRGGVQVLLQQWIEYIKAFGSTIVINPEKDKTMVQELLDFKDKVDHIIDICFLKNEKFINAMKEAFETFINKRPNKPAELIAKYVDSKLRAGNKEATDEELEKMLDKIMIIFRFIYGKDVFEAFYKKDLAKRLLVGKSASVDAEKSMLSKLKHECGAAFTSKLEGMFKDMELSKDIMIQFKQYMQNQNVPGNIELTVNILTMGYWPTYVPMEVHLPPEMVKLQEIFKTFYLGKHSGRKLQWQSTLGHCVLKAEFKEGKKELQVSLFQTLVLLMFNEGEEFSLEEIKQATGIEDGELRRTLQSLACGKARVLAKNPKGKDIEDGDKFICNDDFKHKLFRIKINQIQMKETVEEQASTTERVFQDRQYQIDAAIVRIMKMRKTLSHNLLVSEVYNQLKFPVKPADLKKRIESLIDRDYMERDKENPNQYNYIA
UniProt Q9H1X3: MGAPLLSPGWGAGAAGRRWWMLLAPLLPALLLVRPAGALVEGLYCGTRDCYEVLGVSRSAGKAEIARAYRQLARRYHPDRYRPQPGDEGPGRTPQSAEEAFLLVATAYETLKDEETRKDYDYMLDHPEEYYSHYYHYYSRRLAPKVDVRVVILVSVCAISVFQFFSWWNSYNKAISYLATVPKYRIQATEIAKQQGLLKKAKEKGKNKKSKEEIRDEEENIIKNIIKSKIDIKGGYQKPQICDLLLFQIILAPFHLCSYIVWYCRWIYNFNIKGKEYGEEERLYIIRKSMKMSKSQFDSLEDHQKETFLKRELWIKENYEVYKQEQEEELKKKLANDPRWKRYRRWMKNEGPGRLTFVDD
UniProt P99999: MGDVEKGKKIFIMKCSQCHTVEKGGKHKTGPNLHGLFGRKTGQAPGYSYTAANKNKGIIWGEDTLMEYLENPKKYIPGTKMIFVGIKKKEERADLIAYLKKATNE
UniProt Q9H7D0, whole entry: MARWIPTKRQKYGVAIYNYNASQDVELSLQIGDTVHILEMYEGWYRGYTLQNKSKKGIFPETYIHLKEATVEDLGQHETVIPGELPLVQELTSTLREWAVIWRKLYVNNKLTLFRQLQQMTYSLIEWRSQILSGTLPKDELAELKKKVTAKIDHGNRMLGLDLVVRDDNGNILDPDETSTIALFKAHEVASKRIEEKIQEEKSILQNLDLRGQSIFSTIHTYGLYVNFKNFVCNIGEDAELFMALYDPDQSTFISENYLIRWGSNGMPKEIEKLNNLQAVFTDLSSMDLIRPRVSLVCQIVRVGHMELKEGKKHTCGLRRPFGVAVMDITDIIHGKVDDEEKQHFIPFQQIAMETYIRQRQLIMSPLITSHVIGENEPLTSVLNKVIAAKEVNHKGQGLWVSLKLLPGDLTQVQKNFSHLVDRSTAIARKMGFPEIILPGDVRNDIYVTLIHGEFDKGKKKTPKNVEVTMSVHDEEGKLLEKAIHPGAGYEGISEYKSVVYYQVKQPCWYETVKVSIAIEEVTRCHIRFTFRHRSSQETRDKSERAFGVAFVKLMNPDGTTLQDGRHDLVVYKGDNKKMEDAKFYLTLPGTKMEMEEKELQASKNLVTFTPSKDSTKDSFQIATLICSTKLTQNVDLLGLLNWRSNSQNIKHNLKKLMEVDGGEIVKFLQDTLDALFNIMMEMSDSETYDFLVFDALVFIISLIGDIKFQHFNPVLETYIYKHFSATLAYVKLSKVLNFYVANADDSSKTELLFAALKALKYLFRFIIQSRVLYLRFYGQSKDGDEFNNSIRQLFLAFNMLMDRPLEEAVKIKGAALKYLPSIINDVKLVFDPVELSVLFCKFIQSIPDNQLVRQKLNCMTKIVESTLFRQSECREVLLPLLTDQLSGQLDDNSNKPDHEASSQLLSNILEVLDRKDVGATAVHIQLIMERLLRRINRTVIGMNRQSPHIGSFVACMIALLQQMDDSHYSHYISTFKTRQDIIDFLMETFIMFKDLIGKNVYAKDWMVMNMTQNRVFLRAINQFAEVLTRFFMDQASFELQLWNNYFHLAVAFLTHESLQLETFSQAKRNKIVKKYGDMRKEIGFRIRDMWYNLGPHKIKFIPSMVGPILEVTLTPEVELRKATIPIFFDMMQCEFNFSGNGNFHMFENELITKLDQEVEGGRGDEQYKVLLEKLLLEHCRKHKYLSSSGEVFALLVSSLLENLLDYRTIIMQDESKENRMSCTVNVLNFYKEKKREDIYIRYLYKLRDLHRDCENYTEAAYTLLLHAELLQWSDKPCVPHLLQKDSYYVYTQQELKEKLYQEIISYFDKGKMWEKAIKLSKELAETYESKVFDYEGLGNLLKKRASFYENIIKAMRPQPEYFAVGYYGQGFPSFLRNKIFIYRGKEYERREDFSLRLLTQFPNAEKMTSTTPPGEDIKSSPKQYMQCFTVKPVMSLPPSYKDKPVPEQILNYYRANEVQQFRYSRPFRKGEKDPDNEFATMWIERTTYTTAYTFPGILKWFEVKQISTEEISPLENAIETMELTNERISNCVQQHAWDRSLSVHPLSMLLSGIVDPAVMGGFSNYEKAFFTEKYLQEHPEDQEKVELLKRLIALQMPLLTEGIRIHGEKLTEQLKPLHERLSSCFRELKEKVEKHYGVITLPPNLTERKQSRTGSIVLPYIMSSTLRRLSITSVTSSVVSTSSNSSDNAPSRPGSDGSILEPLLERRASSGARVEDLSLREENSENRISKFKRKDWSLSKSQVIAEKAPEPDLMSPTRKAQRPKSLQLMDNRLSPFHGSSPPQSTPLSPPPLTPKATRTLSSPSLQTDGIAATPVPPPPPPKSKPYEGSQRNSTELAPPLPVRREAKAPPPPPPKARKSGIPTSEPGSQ
UniProt O00399, whole entry: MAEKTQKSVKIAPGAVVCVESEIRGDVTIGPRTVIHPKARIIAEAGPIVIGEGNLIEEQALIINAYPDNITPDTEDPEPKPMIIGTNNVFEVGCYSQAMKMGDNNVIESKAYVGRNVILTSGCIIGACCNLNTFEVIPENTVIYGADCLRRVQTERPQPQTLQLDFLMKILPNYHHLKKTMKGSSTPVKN
UniProt O60888: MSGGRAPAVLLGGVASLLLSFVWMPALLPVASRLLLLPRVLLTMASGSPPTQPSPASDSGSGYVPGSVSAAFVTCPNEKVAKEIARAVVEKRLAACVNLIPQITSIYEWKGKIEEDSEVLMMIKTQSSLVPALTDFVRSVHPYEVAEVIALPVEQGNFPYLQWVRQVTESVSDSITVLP
UniProt O75534: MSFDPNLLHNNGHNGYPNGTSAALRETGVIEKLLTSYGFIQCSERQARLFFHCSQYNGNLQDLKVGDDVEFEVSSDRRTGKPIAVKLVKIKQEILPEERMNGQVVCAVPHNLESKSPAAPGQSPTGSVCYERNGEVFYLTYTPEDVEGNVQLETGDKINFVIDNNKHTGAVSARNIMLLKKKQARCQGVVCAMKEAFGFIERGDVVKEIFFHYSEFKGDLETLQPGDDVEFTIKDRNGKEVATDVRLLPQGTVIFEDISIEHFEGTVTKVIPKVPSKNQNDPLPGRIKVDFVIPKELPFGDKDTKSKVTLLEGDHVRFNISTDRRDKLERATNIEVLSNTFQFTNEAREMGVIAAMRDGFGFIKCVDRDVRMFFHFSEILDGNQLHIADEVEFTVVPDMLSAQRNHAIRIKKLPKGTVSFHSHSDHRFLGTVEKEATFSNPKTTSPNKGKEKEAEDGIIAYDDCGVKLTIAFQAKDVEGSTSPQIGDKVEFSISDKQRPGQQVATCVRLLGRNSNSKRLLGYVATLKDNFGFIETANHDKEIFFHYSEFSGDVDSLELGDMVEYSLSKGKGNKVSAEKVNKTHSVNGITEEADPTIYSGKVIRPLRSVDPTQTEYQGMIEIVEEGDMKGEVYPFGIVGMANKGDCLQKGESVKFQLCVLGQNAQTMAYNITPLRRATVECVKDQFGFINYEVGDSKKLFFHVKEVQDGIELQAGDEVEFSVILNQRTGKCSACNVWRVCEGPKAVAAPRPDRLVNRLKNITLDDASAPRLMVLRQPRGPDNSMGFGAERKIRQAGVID
UniProt Q9H5Z1: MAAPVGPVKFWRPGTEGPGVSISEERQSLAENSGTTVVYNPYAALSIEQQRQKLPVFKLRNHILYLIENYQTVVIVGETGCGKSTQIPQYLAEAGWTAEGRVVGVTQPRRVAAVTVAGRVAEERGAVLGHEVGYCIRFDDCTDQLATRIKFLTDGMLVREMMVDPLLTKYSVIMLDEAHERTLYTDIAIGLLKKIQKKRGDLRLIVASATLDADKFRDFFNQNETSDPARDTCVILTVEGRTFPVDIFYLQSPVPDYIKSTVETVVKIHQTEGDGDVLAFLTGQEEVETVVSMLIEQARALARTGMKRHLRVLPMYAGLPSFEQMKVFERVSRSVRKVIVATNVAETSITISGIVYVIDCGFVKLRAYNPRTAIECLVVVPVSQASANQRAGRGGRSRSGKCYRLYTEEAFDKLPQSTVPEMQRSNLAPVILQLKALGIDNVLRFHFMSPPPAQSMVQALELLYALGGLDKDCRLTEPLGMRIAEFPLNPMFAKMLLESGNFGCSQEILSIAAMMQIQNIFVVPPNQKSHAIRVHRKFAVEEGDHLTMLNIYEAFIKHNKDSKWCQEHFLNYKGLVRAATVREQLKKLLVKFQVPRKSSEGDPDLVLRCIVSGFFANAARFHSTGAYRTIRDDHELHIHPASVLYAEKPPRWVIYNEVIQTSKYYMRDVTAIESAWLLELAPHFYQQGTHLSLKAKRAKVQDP

compound: COc1ccc(Cn2ccc3cc(C)c(C(=O)NO)cc32)cc1; test: dose-dependent thermal stabilisation call (2D-TPP, DLPTP, 10% FDR) (binary (1 = stabilised)); higher = stabilised by the compound; settings: system: HL-60 intact cells; concentration range 0.04-10 µM
Experimental: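 2D thermal proteome profiling in intact HL-60 cells treated with BRD-3811 (0, 0.04, 0.29, 2, 10 uM) for 90 min at 37 C, then heated 3 min at one of 12 temperatures (42-63.9 C). Soluble protein was quantified by TMT10 MS. The value is the DLPTP call of the paper: dose-dependent thermal stabilisation over all temperatures at 10% FDR (F-test of a dose-response against a flat model); one experiment, one call per tested protein.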

Target | dose-dependent thermal stabilisation call
CUL2 (UniProt Q13617) | inactive: 0
DCTN3 (UniProt O75935) | inactive: 0
DGKE (UniProt P52429) | inactive: 0
DAZAP1 (UniProt Q96EP5) | inactive: 0
DPAGT1 (UniProt Q9H3H5) | inactive: 0
DIS3 (UniProt Q9Y2L1) | inactive: 0
DPH2 (UniProt Q9BQC3) | active: 1
DEPDC5 (UniProt O75140) | inactive: 0
DGKH (UniProt Q86XP1) | inactive: 0
CSGALNACT2 (UniProt Q8N6G5) | inactive: 0
DDRGK1 (UniProt Q96HY6) | inactive: 0
DNAJB1 (UniProt P25685) | inactive: 0
DGCR14 (UniProt Q96DF8) | inactive: 0
DNMT1 (UniProt P26358) | inactive: 0
CYBRD1 (UniProt Q53TN4) | inactive: 0
DDX23 (UniProt Q9BUQ8) | inactive: 0
DGCR2 (UniProt P98153) | inactive: 0
CSTF2 (UniProt P33240) | inactive: 0

Reformatted comma-delimited: part of the list above
Target,dose-dependent thermal stabilisation call
CSGALNACT2 (UniProt Q8N6G5),inactive: 0
DDRGK1 (UniProt Q96HY6),inactive: 0

Additional records.

Target | dose-dependent thermal stabilisation call
DNAJB4 (UniProt Q9UDY4) | inactive: 0
CSNK2B (UniProt P67870) | inactive: 0
DOCK8 (UniProt Q8NF50) | inactive: 0
DHRS1 (UniProt Q96LJ7) | inactive: 0
CUL4B (UniProt Q13620) | inactive: 0
DLD (UniProt P09622) | inactive: 0
DNAJC25 (UniProt Q9H1X3) | inactive: 0
DDX52 (UniProt Q9Y2R4) | inactive: 0
DERA (UniProt Q9Y315) | inactive: 0
CYCS (UniProt P99999) | inactive: 0
DOCK5 (UniProt Q9H7D0) | inactive: 0
DCTN6 (UniProt O00399) | inactive: 0
CUTA (UniProt O60888) | inactive: 0
DNA2 (UniProt P51530) | inactive: 0
DHX16 (UniProt O60231) | inactive: 0
DFFA (UniProt O00273) | inactive: 0
CSDE1 (UniProt O75534) | inactive: 0
DHX35 (UniProt Q9H5Z1) | inactive: 0
